Results are given in words; binding and its absence hold for the method and conditions named. A result given as binding can be weak or reduced; the word gives no strength. Where a sequence is shown, tags or fusion partners need not be part of it. Blank lines part the entries; values can stand above or below the binder they belong to.
Assays:
[1] = biological target: Trp1 on B78H1-Trp1 cells (B78H1 engineered to express TRP1 on the surface); test: flow cytometry on B78H1-Trp1 cells, anti-mouse IgG PE detection
[2] = biological target: Trp1 on B78H1-Trp1 cells (B78H1 engineered to express TRP1 on the surface); test: flow cytometry on B78H1-Trp1 cells (surface Trp1), detection with anti-mouse IgG PE

binding [1]: binds | binding [2]: binds
B1: soluble protein comprising the TA99-derived scFv and a Fc domain fused to the scFv (Fc fusion, not shown: a dimerising Fc or GST)
scFv: EVQLQQSGAELVRPGALVKLSCKTSGFNIKDYFLHWVRQRPDQGLEWIGWINPDNGNTVYDPKFQGTASLTADTSSNTVYLQLSGLTSEDTAVYFCTRRDYTYEKAALDYWGQGASVIVSSGGGGSGGGGSGGGGSAFQMSQSPASLSASVGETVTITCRASGNIYNYLAWYQQKQGKSPHLLVYDAKTLADGVPSRFSGSGSGTQYSLKISSLQTEDSGNYYCQHFWSLPFTFGSGTKLEIKAAA
notes: also called scFv-Fc fusion protein; TA99 single chain variable region fused to an Fc domain

binding [1]: binds | binding [2]: binds
B2: murine monoclonal antibody TA99 (antibody, V domains shown)
VH: EVQLQQSGAELVRPGALVKLSCKTSGFNIKDYFLHWVRQRPDQGLEWIGWINPDNGNTVYDPKFQGTASLTADTSSNTVYLQLSGLTSEDTAVYFCTRRDYTYEKAALDYWGQGASVIVSS
VL: AFQMSQSPASLSASVGETVTITCRASGNIYNYLAWYQQKQGKSPHLLVYDAKTLADGVPSRFSGSGSGTQYSLKISSLQTEDSGNYYCQHFWSLPFTFGSGTKLEIKA

Reference: patent US20190375855A1 (Memorial Sloan Kettering, published 2019)
